Data as given in PubChem BioAssay AID504808 (Drosophila RNAi Screening Center, 2011).
The deposit covers about 21,000 reagents; below is an unselected part of those that have a named target and a result. Over the whole deposit, 18 (0.084%) are marked active. 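Raw counts without plate normalisation, one of two replicates; the ratio scores behind the calls were not deposited.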 A plus sign joins genes that one reagent is predicted to hit. Not given: the amount of reagent, the time to read-out.

Assay: 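Fly genes required to hold E2F transcription in check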 (primary screen)
Cells: Drosophila S2 cells
Knock-down reagent: long dsRNA against Drosophila genes
Measurement: 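Dual luciferase plate measurements; E2F-specific signal taken as firefly over Renilla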
Direction: E2F firefly: higher = more E2F reporter activity; Renilla normaliser: higher = more normaliser reporter signal
Active means: 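a knock-down counted as active when the firefly/Renilla E2F signal rose above 50%, a threshold chosen arbitrarily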

target	dsRNA	E2F firefly, rep 1	Renilla normaliser, rep 1	Call
CG11686	DRSC14350	1.14e5	6237	inactive
Ir7e	DRSC18011	49483	3678	inactive
CG17242	DRSC00493	1.59e5	5744	inactive
Arp2	DRSC19332	2.52e5	7975	inactive
SMC6	DRSC15829	1.09e5	5241	inactive
CG4115	DRSC15545	1.91e5	6273	inactive
CG5880	DRSC15906	1596	1140	inactive
NSD	DRSC15691	1.47e5	6294	inactive
eIF2gamma	DRSC13081	61525	2915	inactive
eIF2gamma	DRSC16873	75371	4262	inactive
Nlg2	DRSC03578	1.42e5	4722	inactive
CG6220	DRSC06969	1.01e5	4171	inactive
Spx	DRSC18720	50541	4821	inactive
CG9119	DRSC08620	89368	3612	inactive
CG4712	DRSC06882	89836	4398	inactive
Ptp36E	DRSC03021	94296	4005	inactive
mRpS18B	DRSC02107	82215	3768	inactive
CAH15	DRSC04534	1.18e5	4922	inactive
Synd	DRSC15116	1.21e5	6740	inactive
U4-U6-60K	DRSC10624	69633	3566	inactive
slp2	DRSC00836	1.53e5	5190	inactive
CG14892	DRSC15014	93750	6336	inactive
CG1927	DRSC08146	67981	3572	inactive
Crag	DRSC18454	8023	720	inactive
Toll-6	DRSC11304	1.56e5	6582	inactive
CG5149	DRSC02819	98975	4643	inactive
Vap33	DRSC18384	1914	892	inactive
CG9547	DRSC03260	94558	3946	inactive
CG15198	DRSC19645	1.21e5	5869	inactive
ppk31	DRSC13811	91565	3054	inactive
Actn	DRSC17724	1683	872	inactive
CG7196 (retired record)	DRSC01000	1.33e5	6857	inactive
CG7196 (retired record)	DRSC03023	1.35e5	5429	inactive
Gad1	DRSC08661	71286	3832	inactive
dsx	DRSC12649	75661	3368	inactive
dsx	DRSC16934	82315	3170	inactive
CG10026	DRSC02010	96767	3923	inactive
SdhD	DRSC14215	1.07e5	5582	inactive
CG33627	DRSC05343	1.16e5	4369	inactive
eRF3	DRSC03322	1.03e5	4331	inactive

A run of entries of the results above, as a working copy:
target	dsRNA	E2F firefly, rep 1	Renilla normaliser, rep 1	Call
CG6220	DRSC06969	1.01e5	4171	inactive
Spx	DRSC18720	50541	4821	inactive
CG9119	DRSC08620	89368	3612	inactive
CG4712	DRSC06882	89836	4398	inactive

Additional entries:
target	dsRNA	E2F firefly, rep 1	Renilla normaliser, rep 1	Call
Piezo	DRSC03092	94951	4044	inactive
Cyp9c1	DRSC04607	90639	3640	inactive
CR18228	DRSC15317	1.34e5	6246	inactive
PNUTS	DRSC00638	67964	3673	inactive
CG3552	DRSC10370	1.30e5	6904	inactive
CG3342	DRSC18304	7974	788	inactive
CG8141	DRSC16387	1.16e5	5523	inactive
CG5727	DRSC02882	78034	3178	inactive
CG34430	DRSC06499	1.45e5	4774	inactive
Gs1l	DRSC00754	1.61e5	5501	inactive
Adck5	DRSC10890	1.26e5	6917	inactive
foxo	DRSC13017	53988	2967	inactive
foxo	DRSC15463	73346	3275	inactive
CG13337	DRSC06371	1.09e5	4361	inactive
Ppa	DRSC04598	99260	4106	inactive
CG17258	DRSC00495	1.19e5	4462	inactive
CG14718	DRSC14941	83393	4151	inactive
CG13226	DRSC06346	95788	4250	inactive
Prosbeta2R1	DRSC18154	44665	3175	inactive
CG15126	DRSC06548	1.40e5	4854	inactive
prtp	DRSC19804	72189	688	inactive
CG12605	DRSC08286	96838	4389	inactive
CR46300	DRSC12467	89474	4881	inactive
c-cup	DRSC00458	1.72e5	5164	inactive
CG14995	DRSC08452	59631	2969	inactive
CG3257	DRSC04351	78539	3739	inactive
CG15201	DRSC19648	1.41e5	6366	inactive
Zasp52	DRSC06269	1.50e5	4840	inactive
Zasp52	DRSC07121	1.24e5	4396	inactive
ATPsynD	DRSC14093	1.03e5	8467	inactive
udt	DRSC14214	1.31e5	6687	inactive
hth	DRSC16967	1.56e5	6729	inactive
Rpn13	DRSC06379	85583	4550	inactive
Ppt2	DRSC02786	95607	3657	inactive
CG14933 + CG42486	DRSC02415	1.57e5	5900	inactive
Golgin97	DRSC06895	3217	180	inactive
Sk1	DRSC19774	94738	5464	inactive
HisCl1	DRSC14945	61753	3322	inactive
CG5390	DRSC02855	1.39e5	4654	inactive
BOD1	DRSC15824	1586	684	inactive
CG32104	DRSC10127	1.10e5	5501	inactive
CG32104	DRSC10128	1.13e5	5376	inactive
mRpL11	DRSC15482	1.12e5	5886	inactive
RhoGAP19D	DRSC20499	1.58e5	5750	inactive
RhoGAP19D	DRSC20500	1.15e5	6772	inactive
